No constants are given. Whether binding was seen depends on the method and setting. Some binding calls cover weakened binding; strength is not graded here. For some of these results: Sequences can lack the tags named with a protein.
Experiments:
[1] = biological target: T1, FLAG-tagged Eos L2 (CKR-3) receptor (human) (UniProt P51677); assay: competition with 0.6 nM 125I-eotaxin on E5 cells
T1 sequence: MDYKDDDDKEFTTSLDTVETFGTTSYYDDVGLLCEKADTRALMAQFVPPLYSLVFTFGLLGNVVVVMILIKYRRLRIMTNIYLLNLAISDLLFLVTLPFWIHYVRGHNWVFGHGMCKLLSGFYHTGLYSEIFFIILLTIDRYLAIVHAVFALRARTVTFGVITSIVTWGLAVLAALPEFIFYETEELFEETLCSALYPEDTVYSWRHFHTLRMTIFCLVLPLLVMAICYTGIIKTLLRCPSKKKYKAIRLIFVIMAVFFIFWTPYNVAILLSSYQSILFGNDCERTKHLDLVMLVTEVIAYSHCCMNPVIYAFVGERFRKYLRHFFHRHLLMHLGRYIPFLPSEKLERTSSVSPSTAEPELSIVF

Amino acid sequences for entries named in this document (tags omitted). Residues count along the entry.
UniProt P80098, residues 24-99: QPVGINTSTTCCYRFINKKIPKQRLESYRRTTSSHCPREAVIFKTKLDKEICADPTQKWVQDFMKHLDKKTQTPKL
UniProt P13501, residues 24-91: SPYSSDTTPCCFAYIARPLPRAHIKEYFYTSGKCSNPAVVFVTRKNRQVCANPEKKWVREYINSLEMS
UniProt P51671, residues 24-97: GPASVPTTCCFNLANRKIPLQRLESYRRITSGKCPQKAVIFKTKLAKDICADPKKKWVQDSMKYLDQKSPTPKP

[2] = biological target: T2, receptor encoded by the A31 cDNA clone (human CKR-3 / Eos L2) (human) (UniProt P51677); assay: 0.125 nM 125I-MCP-3 on membranes of A31-293-#20 cells, displacement
T2 sequence: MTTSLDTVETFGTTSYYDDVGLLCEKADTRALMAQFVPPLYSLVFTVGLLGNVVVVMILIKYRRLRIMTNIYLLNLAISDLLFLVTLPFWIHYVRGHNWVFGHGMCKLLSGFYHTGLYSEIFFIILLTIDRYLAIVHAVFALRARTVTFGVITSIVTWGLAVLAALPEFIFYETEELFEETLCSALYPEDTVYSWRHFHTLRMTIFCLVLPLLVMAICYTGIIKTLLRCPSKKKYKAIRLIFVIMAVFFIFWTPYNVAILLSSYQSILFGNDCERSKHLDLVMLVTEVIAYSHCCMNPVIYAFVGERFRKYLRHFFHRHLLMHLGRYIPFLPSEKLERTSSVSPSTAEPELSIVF

[3] = biological target: T2, receptor encoded by the A31 cDNA clone (human CKR-3 / Eos L2) (human); assay: 125I-MCP-3 on membranes of A31-293-#20 cells
[4] = biological target: T1, FLAG-tagged Eos L2 (CKR-3) receptor (human); assay: 0.1 nM 125I-RANTES on Eos L2 baculovirus-infected SF9 cells
[5] = biological target: T2, receptor encoded by the A31 cDNA clone (human CKR-3 / Eos L2) (human); assay: 0.125 nM 125I-RANTES on membranes of A31-293-#20 cells, filter binding
[6] = biological target: T1, FLAG-tagged Eos L2 (CKR-3) receptor (human); assay: 0.6 nM 125I-eotaxin on E5 cells with cold competitor

Substance | binding [1] | binding [2] | binding [3] | binding [4] | binding [5] | binding [6]
MCP-3 (from UniProt P80098 24-99) (ligand) | binds | binds | binds |  |  | 
RANTES (from UniProt P13501 24-91) (ligand) | binds |  |  | binds | binds | 
human eotaxin (from UniProt P51671 24-97) (ligand) |  |  |  |  |  | binds
